Measured data: PubChem BioAssay AID493246 (Drosophila RNAi Screening Center, 2011)

Screen: 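Genome-wide search for dsRNAs that reduce cell number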 (primary screen)
System: Drosophila Kc and S2R+ cells
Reagent: long dsRNA against Drosophila genes
Read-out: 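Cell number per well after knock-down, printed as raw plate values; calls were based on per-plate z-scores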
Scale: Kc cell number and S2R+ cell number: higher = more cells remaining
Hit rule: 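Active when the per-plate z-score of cell number is 3 or more in the direction of fewer cells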
In all, the deposit lists about 21,000 reagents; shown is a random part of those with a known target gene and a result. In the full data, 429 (2%) are marked active. 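Values are raw and not normalised between plates; calls rest on per-plate z-scores that were not deposited.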 Not given: the amount of reagent, the time to read-out.

CG32086 (GeneID 326195) [DRSC10586] → Kc cell number, rep 1 = 1.34e6; Kc cell number, rep 2 = 1.37e6; S2R+ cell number, rep 1 = 1.31e6; S2R+ cell number, rep 2 = 1.36e6; activity call = inactive
CG4613 (GeneID 39586) [DRSC10435] → Kc cell number, rep 1 = 1.67e6; Kc cell number, rep 2 = 1.79e6; S2R+ cell number, rep 1 = 1.27e6; S2R+ cell number, rep 2 = 1.34e6; activity call = inactive
sov (GeneID 31615) [DRSC17930] → Kc cell number, rep 1 = 5.49e5; S2R+ cell number, rep 1 = 8.54e5; activity call = inactive
CG5039 (GeneID 43100) [DRSC15703] → Kc cell number, rep 1 = 1.58e6; Kc cell number, rep 2 = 1.56e6; S2R+ cell number, rep 1 = 9.80e5; S2R+ cell number, rep 2 = 1.08e6; activity call = inactive
ND5 (retired record) (GeneID 192478) [DRSC21281] → Kc cell number, rep 1 = 1.84e6; Kc cell number, rep 2 = 1.86e6; S2R+ cell number, rep 1 = 1.23e6; S2R+ cell number, rep 2 = 1.39e6; activity call = inactive
CG1986 (GeneID 31925) [DRSC18197] → Kc cell number, rep 1 = 1.46e6; Kc cell number, rep 2 = 1.43e6; S2R+ cell number, rep 1 = 1.01e6; S2R+ cell number, rep 2 = 1.11e6; activity call = inactive
Spn55B (GeneID 49803) [DRSC07694] → Kc cell number, rep 1 = 1.33e6; Kc cell number, rep 2 = 1.35e6; S2R+ cell number, rep 1 = 1.06e6; S2R+ cell number, rep 2 = 1.22e6; activity call = inactive
Dhc64C (GeneID 38580) [DRSC08656] → Kc cell number, rep 1 = 1.40e6; Kc cell number, rep 2 = 1.40e6; S2R+ cell number, rep 1 = 1.25e6; S2R+ cell number, rep 2 = 1.24e6; activity call = inactive
CG15126 (GeneID 50202) [DRSC06548] → Kc cell number, rep 1 = 1.51e6; Kc cell number, rep 2 = 1.60e6; S2R+ cell number, rep 1 = 1.13e6; S2R+ cell number, rep 2 = 1.25e6; activity call = inactive
dpr7 (GeneID 2768865) [DRSC17109] → Kc cell number, rep 1 = 1.25e6; Kc cell number, rep 2 = 1.34e6; S2R+ cell number, rep 1 = 1.02e6; S2R+ cell number, rep 2 = 1.08e6; activity call = inactive
CG12347 (GeneID 42152) [DRSC14502] → Kc cell number, rep 1 = 1.53e6; Kc cell number, rep 2 = 1.50e6; S2R+ cell number, rep 1 = 1.06e6; S2R+ cell number, rep 2 = 1.15e6; activity call = inactive
Hs2st (GeneID 44433) [DRSC03348] → Kc cell number, rep 1 = 1.42e6; Kc cell number, rep 2 = 1.49e6; S2R+ cell number, rep 1 = 1.30e6; S2R+ cell number, rep 2 = 1.33e6; activity call = inactive
CG11380 (GeneID 31065) [DRSC18632] → Kc cell number, rep 1 = 1.37e6; Kc cell number, rep 2 = 1.47e6; S2R+ cell number, rep 1 = 8.25e5; S2R+ cell number, rep 2 = 9.32e5; activity call = inactive
BthD (GeneID 32317) [DRSC19395] → Kc cell number, rep 1 = 1.68e6; Kc cell number, rep 2 = 1.45e6; S2R+ cell number, rep 1 = 1.10e6; S2R+ cell number, rep 2 = 1.22e6; activity call = inactive
CG12506 (GeneID 33249) [DRSC00347] → Kc cell number, rep 1 = 1.55e6; Kc cell number, rep 2 = 1.60e6; S2R+ cell number, rep 1 = 1.11e6; S2R+ cell number, rep 2 = 1.20e6; activity call = inactive
CG31267 (GeneID 318651) [DRSC15748] → Kc cell number, rep 1 = 1.40e6; Kc cell number, rep 2 = 1.58e6; S2R+ cell number, rep 1 = 1.03e6; S2R+ cell number, rep 2 = 1.17e6; activity call = inactive
CG4622 (GeneID 37919) [DRSC04479] → Kc cell number, rep 1 = 1.31e6; Kc cell number, rep 2 = 1.40e6; S2R+ cell number, rep 1 = 1.19e6; S2R+ cell number, rep 2 = 1.25e6; activity call = inactive
mip130 (GeneID 31153) [DRSC18575] → Kc cell number, rep 1 = 1.51e6; Kc cell number, rep 2 = 1.50e6; S2R+ cell number, rep 1 = 1.01e6; S2R+ cell number, rep 2 = 1.13e6; activity call = inactive
Adgf-C (GeneID 41680) [DRSC16473] → Kc cell number, rep 1 = 1.25e6; Kc cell number, rep 2 = 1.30e6; S2R+ cell number, rep 1 = 9.99e5; S2R+ cell number, rep 2 = 1.16e6; activity call = inactive
COX6B (GeneID 32989) [DRSC19590] → Kc cell number, rep 1 = 1.47e6; Kc cell number, rep 2 = 1.51e6; S2R+ cell number, rep 1 = 9.62e5; S2R+ cell number, rep 2 = 1.03e6; activity call = inactive
cnn (GeneID 36491) [DRSC05422] → Kc cell number, rep 1 = 1.47e6; Kc cell number, rep 2 = 1.40e6; S2R+ cell number, rep 1 = 9.73e5; S2R+ cell number, rep 2 = 1.12e6; activity call = inactive
cnn (GeneID 36491) [DRSC07596] → Kc cell number, rep 1 = 1.48e6; Kc cell number, rep 2 = 1.54e6; S2R+ cell number, rep 1 = 1.24e6; S2R+ cell number, rep 2 = 1.35e6; activity call = inactive
CG34112 (GeneID 4379842) [DRSC12235] → Kc cell number, rep 1 = 1.46e6; Kc cell number, rep 2 = 1.37e6; S2R+ cell number, rep 1 = 1.37e6; S2R+ cell number, rep 2 = 1.48e6; activity call = inactive
CG14397 (GeneID 8674022) [DRSC02381] → Kc cell number, rep 1 = 1.62e6; Kc cell number, rep 2 = 1.69e6; S2R+ cell number, rep 1 = 1.30e6; S2R+ cell number, rep 2 = 3.88e5; activity call = inactive
GstD1 (GeneID 41503) [DRSC16683] → Kc cell number, rep 1 = 1.48e6; Kc cell number, rep 2 = 1.45e6; S2R+ cell number, rep 1 = 1.19e6; S2R+ cell number, rep 2 = 1.29e6; activity call = inactive
Mul1 (GeneID 38472) [DRSC08174] → Kc cell number, rep 1 = 1.60e6; Kc cell number, rep 2 = 1.47e6; S2R+ cell number, rep 1 = 1.06e6; S2R+ cell number, rep 2 = 1.34e6; activity call = inactive
CG5381 (GeneID 34389) [DRSC02852] → Kc cell number, rep 1 = 1.60e6; Kc cell number, rep 2 = 1.76e6; S2R+ cell number, rep 1 = 1.37e6; S2R+ cell number, rep 2 = 1.51e6; activity call = inactive
